In US20040259165A1 (published 2004):
These are yes or no findings as the source states them, for the method shown. Some results given as binding are weak or reduced against the parent protein; the word gives no strength. Sequences can lack the tags named with a protein.

Target: Polyhistidine-tagged DsRed K83R (Discosoma species)
Test: SDS-PAGE without heating (200 mM DTT)

binding: binds
B1: Polyhistidine-tagged DsRed K83R (protein)
chain: MRGSHHHHHHGMASMTGGQQMGRDLYDDDDKDPMRSSKNVIKEFMRFKVRMEGTVNGHEFEIEGEGEGRPYEGHNTVKLKVTKGGPLPFAWDILSPQFQYGSKVYVKHPADIPDYRKLSFPEGFKWERVMNFEDGGVVTVTQDSSLQDGCFIYKVKFIGVNFPSDGPVMQKKTMGWEASTERLYPRDGVLKGEIHKALKLKDGGHYLVEFKSIYMAKKPVQLPGYYYVDSKLDITSHNEDYTIVEQYERTEGRHHLFL
